Experimental findings from doi:10.1101/2023.04.29.538802 are described below.

These are yes or no findings as the source states them, for the method shown. Binding seen in cells or lysates may run through a third protein. Some binding calls cover weakened binding; strength is not graded here. For part of these data: Where a sequence is shown, tags or fusion partners need not be part of it.

The target of assay [1] is His-tagged SP1 expressed from pcDNA3.1-SP1 (human), P08047. In words: co-IP. As to conditions: remark: other sources report otherwise.
Assay [2] has as its target endogenous SP1 (human (endogenous in HEK293 and HCT 116)), P08047. In words: co-IP. As to conditions: remark: other sources report otherwise.

B1: Flag-tagged p68 (DDX5) expressed from pIRES-p68, P17844 1-614 (protein)
chain: MSGYSSDRDRGRDRGFGAPRFGGSRAGPLSGKKFGNPGEKLVKKKWNLDELPKFEKNFYQEHPDLARRTAQEVETYRRSKEITVRGHNCPKPVLNFYEANFPANVMDVIARQNFTEPTAIQAQGWPVALSGLDMVGVAQTGSGKTLSYLLPAIVHINHQPFLERGDGPICLVLAPTRELAQQVQQVAAEYCRACRLKSTCIYGGAPKGPQIRDLERGVEICIATPGRLIDFLECGKTNLRRTTYLVLDEADRMLDMGFEPQIRKIVDQIRPDRQTLMWSATWPKEVRQLAEDFLKDYIHINIGALELSANHNILQIVDVCHDVEKDEKLIRLMEEIMSEKENKTIVFVETKRRCDELTRKMRRDGWPAMGIHGDKSQQERDWVLNEFKHGKAPILIATDVASRGLDVEDVKFVINYDYPNSSEDYIHRIGRTARSTKTGTAYTFFTPNNIKQVSDLISVLREANQAINPKLLQLVEDRGSGRSRGRGGMKDDRRDRYSAGKRGGFNTFRDRENYDRGYSSLLKRDFGAKTQNGVYSAANYTNGSFGSNFVSAGIQTSFRTGNPTGTYQNGYDSTQQYGSNVPNMHNGMNQQAYAYPATAAAPMIGYPMPTGYSQ
Turning to B1, the binding entry in assay [1] was “binds”.

B2: endogenous p68 (DDX5), P17844 1-614 (protein)
chain: B1 chain
Regarding B2, the binding result in assay [1] and in assay [2] was “binds” in each case.
